Measurements reported in article doi:10.1101/2024.06.16.599208.

Protein sequences, listed by entry. Tags and fused reporters are not part of them. Residues count along the entry.
UniProt Q00839, 221-679: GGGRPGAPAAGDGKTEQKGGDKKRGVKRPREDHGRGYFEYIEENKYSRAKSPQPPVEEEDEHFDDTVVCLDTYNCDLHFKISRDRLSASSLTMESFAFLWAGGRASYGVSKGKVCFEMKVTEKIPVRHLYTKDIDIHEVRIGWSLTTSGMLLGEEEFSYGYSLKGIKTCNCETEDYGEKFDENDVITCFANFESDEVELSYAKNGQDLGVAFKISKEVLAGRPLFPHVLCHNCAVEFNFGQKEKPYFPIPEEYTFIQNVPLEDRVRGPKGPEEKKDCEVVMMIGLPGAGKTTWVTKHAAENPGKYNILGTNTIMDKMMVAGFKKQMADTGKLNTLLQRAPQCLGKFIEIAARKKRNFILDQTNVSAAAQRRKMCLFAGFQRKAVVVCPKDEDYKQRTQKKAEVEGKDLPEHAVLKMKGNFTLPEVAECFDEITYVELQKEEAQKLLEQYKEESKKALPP

Target: SAF-A SPRNK domain (SPRY/PNK) WT (UniProt Q00839)
Assay: EMSA
Settings: residues 221-679

Sequence | binding result
UUUUUUUUUUUUUUUUUUUU [oligoU20-DY681] | binds
UUUUUUUUUUUUUUUUUUUUUUUUUUUUUUUUUUUUUUUU [oligoU40-DY681] | binds

The exact form of at least one protein or probe is not confirmed. At least one verdict was read from the data and is not stated in words by the source.
